Results are given in words; binding and its absence hold for the method and conditions named. Binding seen in cells or lysates may run through a third protein. These calls come from enrichment with a bait or labelling near it, and not all partners need be listed. Where a sequence is shown, tags or fusion partners need not be part of it.
T1: HA-tagged wild-type BET1 (human) (UniProt O15155)
T1 sequence: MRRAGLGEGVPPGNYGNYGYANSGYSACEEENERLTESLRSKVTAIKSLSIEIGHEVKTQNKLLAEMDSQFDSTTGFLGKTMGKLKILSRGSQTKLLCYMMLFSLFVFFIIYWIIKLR

The chains behind the UniProt entries cited, without tags or fusion partners.
UniProt Q9UMX0: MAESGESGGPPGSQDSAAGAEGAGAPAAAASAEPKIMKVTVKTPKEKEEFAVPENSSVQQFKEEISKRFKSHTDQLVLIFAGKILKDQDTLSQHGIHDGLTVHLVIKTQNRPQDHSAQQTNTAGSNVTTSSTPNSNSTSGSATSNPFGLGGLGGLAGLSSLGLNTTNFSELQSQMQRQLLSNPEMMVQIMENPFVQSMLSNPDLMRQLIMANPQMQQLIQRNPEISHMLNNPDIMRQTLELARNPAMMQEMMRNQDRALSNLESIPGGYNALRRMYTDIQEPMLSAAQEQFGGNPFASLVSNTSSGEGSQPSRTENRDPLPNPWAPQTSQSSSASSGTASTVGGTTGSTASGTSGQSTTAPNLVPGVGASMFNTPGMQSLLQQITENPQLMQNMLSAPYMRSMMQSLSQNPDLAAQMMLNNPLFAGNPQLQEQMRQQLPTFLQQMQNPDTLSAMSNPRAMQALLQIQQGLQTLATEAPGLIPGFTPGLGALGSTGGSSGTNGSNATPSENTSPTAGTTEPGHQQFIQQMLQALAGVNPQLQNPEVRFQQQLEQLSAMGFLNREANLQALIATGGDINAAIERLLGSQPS

B1: SEC20 (protein, UniProt Q12981 1-228)
chain: MAAPQDVHVRICNQEIVKFDLEVKALIQDIRDCSGPLSALTELNTKVKEKFQQLRHRIQDLEQLAKEQDKESEKQLLLQEVENHKKQMLSNQASWRKANLTCKIAIDNLEKAELLQGGDLLRQRKTTKESLAQTSSTITESLMGISRMMAQQVQQSEEAMQSLVTSSRTILDANEEFKSMSGTIQLGRKLITKYNRRELTDKLLIFLALALFLATVLYIVKKRLFPFL
B2: eukaryotic translation initiation factor 4E transporter (EIF4ENIF1) (protein, UniProt Q9NRA8 1-985)
chain: MDRRSMGETESGDAFLDLKKPPASKCPHRYTKEELLDIKELPHSKQRPSCLSEKYDSDGVWDPEKWHASLYPASGRSSPVESLKKELDTDRPSLVRRIVDPRERVKEDDLDVVLSPQRRSFGGGCHVTAAVSSRRSGSPLEKDSDGLRLLGGRRIGSGRIISARTFEKDHRLSDKDLRDLRDRDRERDFKDKRFRREFGDSKRVFGERRRNDSYTEEEPEWFSAGPTSQSETIELTGFDDKILEEDHKGRKRTRRRTASVKEGIVECNGGVAEEDEVEVILAQEPAADQEVPRDAVLPEQSPGDFDFNEFFNLDKVPCLASMIEDVLGEGSVSASRFSRWFSNPSRSGSRSSSLGSTPHEELERLAGLEQAILSPGQNSGNYFAPIPLEDHAENKVDILEMLQKAKVDLKPLLSSLSANKEKLKESSHSGVVLSVEEVEAGLKGLKVDQQVKNSTPFMAEHLEETLSAVTNNRQLKKDGDMTAFNKLVSTMKASGTLPSQPKVSRNLESHLMSPAEIPGQPVPKNILQELLGQPVQRPASSNLLSGLMGSLEPTTSLLGQRAPSPPLSQVFQTRAASADYLRPRIPSPIGFTPGPQQLLGDPFQGMRKPMSPITAQMSQLELQQAALEGLALPHDLAVQAANFYQPGFGKPQVDRTRDGFRNRQQRVTKSPAPVHRGNSSSPAPAASITSMLSPSFTPTSVIRKMYESKEKSKEEPASGKAALGDSKEDTQKASEENLLSSSSVPSADRDSSPTTNSKLSALQRSSCSTPLSQANRYTKEQDYRPKATGRKTPTLASPVPTTPFLRPVHQVPLVPHVPMVRPAHQLHPGLVQRMLAQGVHPQHLPSLLQTGVLPPGMDLSHLQGISGPILGQPFYPLPAASHPLLNPRPGTPLHLAMVQQQLQRSVLHPPGSGSHAAAVSVQTTPQNVPSRSGLPHMHSQLEHRPSQRSSSPVGLAKWFGSDVLQQPLPSMPAKVISVDELEYRQ
B3: ERGIC-53 (protein, UniProt P49257 31-510)
chain: DGVGGDPAVALPHRRFEYKYSFKGPHLVQSDGTVPFWAHAGNAIPSSDQIRVAPSLKSQRGSVWTKTKAAFENWEVEVTFRVTGRGRIGADGLAIWYAENQGLEGPVFGSADLWNGVGIFFDSFDNDGKKNNPAIVIIGNNGQIHYDHQNDGASQALASCQRDFRNKPYPVRAKITYYQNTLTVMINNGFTPDKNDYEFCAKVENMIIPAQGHFGISAATGGLADDHDVLSFLTFQLTEPGKEPPTPDKEISEKEKEKYQEEFEHFQQELDKKKEEFQKGHPDLQGQPAEEIFESVGDRELRQVFEGQNRIHLEIKQLNRQLDMILDEQRRYVSSLTEEISKRGAGMPGQHGQITQQELDTVVKTQHEILRQVNEMKNSMSETVRLVSGMQHPGSAGGVYETTQHFIDIKEHLHIVKRDIDNLVQRNMPSNEKPKCPELPPFPSCLSTVHFIIFVVVQTVLFIGYIMYRSQQEAAAKKFF
B4: GOSR2 (protein, UniProt O14653 1-212)
chain: MDPLFQQTHKQVHEIQSCMGRLETADKQSVHIVENEIQASIDQIFSRLERLEILSSKEPPNKRQNARLRVDQLKYDVQHLQTALRNFQHRRHAREQQERQREELLSRTFTTNDSDTTIPMDESLQFNSSLQKVHNGMDDLILDGHNILDGLRTQRLTLKGTQKKILDIANMLGLSNTVMRLIEKRAFQDKYFMIGGMLLTCVVMFLVVQYLT
B5: DNAJC7 (protein, UniProt Q99615 1-494)
chain: MAAAAECDVVMAATEPELLDDQEAKREAETFKEQGNAYYAKKDYNEAYNYYTKAIDMCPKNASYYGNRAATLMMLGRFREALGDAQQSVRLDDSFVRGHLREGKCHLSLGNAMAACRSFQRALELDHKNAQAQQEFKNANAVMEYEKIAETDFEKRDFRKVVFCMDRALEFAPACHRFKILKAECLAMLGRYPEAQSVASDILRMDSTNADALYVRGLCLYYEDCIEKAVQFFVQALRMAPDHEKACIACRNAKALKAKKEDGNKAFKEGNYKLAYELYTEALGIDPNNIKTNAKLYCNRGTVNSKLRKLDDAIEDCTNAVKLDDTYIKAYLRRAQCYMDTEQYEEAVRDYEKVYQTEKTKEHKQLLKNAQLELKKSKRKDYYKILGVDKNASEDEIKKAYRKRALMHHPDRHSGASAEVQKEEEKKFKEVGEAFTILSDPKKKTRYDSGQDLDEEGMNMGDFDPNNIFKAFFGGPGGFSFEASGPGNFFFQFG
B6: YKT6 (protein, UniProt O15498 1-198)
chain: MKLYSLSVLYKGEAKVVLLKAAYDVSSFSFFQRSSVQEFMTFTSQLIVERSSKGTRASVKEQDYLCHVYVRNDSLAGVVIADNEYPSRVAFTLLEKVLDEFSKQVDRIDWPVGSPATIHYPALDGHLSRYQNPREADPMTKVQAELDETKIILHNTMESLLERGEKLDDLVSKSEVLGTQSKAFYKTARKQNSCCAIM

Target: T1, HA-tagged wild-type BET1 (human)
Test: affinity purification with mass spectrometry; HEK293T cells transiently transfected with HA-tagged wild-type BET1 or BET1 Ile51Ser (mock-transfected as control); three independent AP-MS experiments, spectral counts

binding	Molecule
binds	Ubiquilin 1 (UBQLN1) (from UniProt Q9UMX0 1-589)
binds	B1
binds	B2
binds	B3
binds	B4
binds	B5
binds	B6

— article PMC8649873
